# Source: PubChem BioAssay AID1259354 (Paczesny and Yang Labs, IUPUI and University of Michigan, 2018)
# Protein sequences, listed by entry. Tags and fused reporters are not part of them. Lines headed by an entry give the natural chain unless they say otherwise; changes in a name come on top.
# UniProt Q01638: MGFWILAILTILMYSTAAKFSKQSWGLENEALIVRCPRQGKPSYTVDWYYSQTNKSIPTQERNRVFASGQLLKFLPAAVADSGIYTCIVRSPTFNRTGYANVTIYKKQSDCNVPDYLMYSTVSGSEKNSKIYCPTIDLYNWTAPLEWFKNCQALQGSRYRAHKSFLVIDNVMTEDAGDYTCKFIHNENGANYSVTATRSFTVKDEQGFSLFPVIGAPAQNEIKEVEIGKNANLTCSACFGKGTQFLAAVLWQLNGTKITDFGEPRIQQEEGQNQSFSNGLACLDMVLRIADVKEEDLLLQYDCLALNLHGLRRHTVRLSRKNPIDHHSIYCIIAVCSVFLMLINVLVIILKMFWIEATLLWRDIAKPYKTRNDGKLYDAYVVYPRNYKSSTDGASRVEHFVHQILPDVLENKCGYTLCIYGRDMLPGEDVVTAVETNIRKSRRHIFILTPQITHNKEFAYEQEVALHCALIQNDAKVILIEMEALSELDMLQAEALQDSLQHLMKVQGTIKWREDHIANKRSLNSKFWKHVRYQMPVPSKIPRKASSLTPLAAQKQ
# The campaign covered roughly 78,000 compounds. About 1,800 (2.3%) were called active. The shares of active, inactive and inconclusive entries below differ from those in the screen. Cut-off read from the data, not from the text of the source: active = inhibition above about 30%; inconclusive = mostly about 10% to 28%; inactive = weaker than that.
# Molecular target: Interleukin-1 receptor-like 1 (Homo sapiens) (UniProt Q01638)
# Test: blocks human ST2 binding to IL-33, primary screen, biochemical, AlphaLISA (AID 1259354)
# Conditions: AlphaLISA ST2-Fc/biotin-IL-33 interaction, 1 h; at 17 µM, stronger effect = higher value
row,SMILES,inhibition
1,NS(=O)(=O)c1ccc(CCNCCC(=O)N2CCc3ccccc3C2)cc1,inconclusive: 21%
2,COc1ccc(-n2nc3c(c2NC(=O)COc2ccc(Cl)cc2)CSC3)cc1,inconclusive: 10%
3,CN(C)CCNC(=O)c1ccc2c(c1)ncn2C1CCCCC1,inactive
4,Cc1csc(=Nc2ccccc2)n1CC(=O)c1ccccc1,active: 36%
5,COc1ccc(OC)c(/C=C2\SC(N3CCCCC3)=NC2=O)c1,inconclusive: 17%
6,Cc1cccn2c(=O)c3cc(C(=O)NC4CCCCCC4)n(C)c3nc12,inactive
7,O=C1c2c(O)ccc(O)c2C(=O)c2c(NCCNCCO)ccc(NCCNCCO)c21,active: 82%
8,CN1C[C@@H](NC(=O)NC2CCCCC2)C[C@H]1c1nc(-c2ccccc2)no1,active: 82%
9,Cc1ccc(-n2ncnc2-c2ccccc2C)cc1Cl,inactive
10,O=C(NCCCN1CCCC1)c1cc2cc3ccc(Cl)cc3nc2o1,inactive
11,COc1ccc(C(=O)N2C[C@@H]3C[C@H](C2)c2c(NC(=O)Nc4ccccc4OC)ccc(=O)n2C3)cc1,inconclusive: 22%
12,Cc1ccc(Cl)cc1N1CCN(S(=O)(=O)c2cccc3cccnc23)CC1,inconclusive: 10%
13,CC(=O)O[C@H]1C[C@@H]2CC[C@@H]3[C@H](CC[C@@]4(C)[C@H]3C[C@H]([N+]3(C)CCCCC3)[C@@H]4OC(C)=O)[C@@]2(C)C[C@@H]1[N+]1(C)CCCCC1,inconclusive: 11%
14,CCOc1ccc2cc(C(N)=O)c(=Nc3ccccc3C)oc2c1,inconclusive: 22%
15,CCN(Cc1noc(CC(C)C)n1)C(=O)c1cccc(-n2cccn2)c1,inactive
16,CCC(=O)NCc1ccccc1-c1ccc(OC)cc1C,inconclusive: 10%
17,O=C(NCc1cccnc1Oc1ccccc1)c1ccc(-n2cnnc2)nc1,inconclusive: 15%
18,COC(=O)C1=CO[C@@H](O[C@@H]2O[C@H](CO)[C@@H](O)[C@H](O)[C@H]2O)/C(=C\CO)[C@@H]1CC(=O)OCCc1ccc(O)cc1,inconclusive: 10%
19,Cc1nccn1-c1ccc(Cn2ccnc2-c2cc3ccccc3[nH]c2=O)cc1,inconclusive: 16%
20,Cc1cc(C)n(CC(C)NC(=O)c2cc(COc3ccccc3)[nH]n2)n1 (configuration not stated),inconclusive: 19%
21,Cc1ccccc1-n1nc2c(c1NC(=O)c1c(F)cccc1Cl)CS(=O)C2 (configuration not stated),inactive
22,Cc1ccc(N2C(=O)CC(N3CCN(c4ccc(F)cc4)CC3)C2=O)c(C)c1 (configuration not stated),inconclusive: 12%
23,Cc1cc(OCC(=O)NCc2ccc3c(c2)OCO3)cc(C)c1Br,inactive
24,Cc1[nH]c(=O)[nH]c(=O)c1S(=O)(=O)N1CCN(C(c2ccccc2)c2ccc(Cl)cc2)CC1 (configuration not stated),inconclusive: 22%

# Individual results from the results shown:
# Entry for Cc1cccn2c(=O)c3cc(C(=O)NC4CCCCCC4)n(C)c3nc12 under inhibition: inactive
# Entry for COC(=O)C1=CO[C@@H](O[C@@H]2O[C@H](CO)[C@@H](O)[C@H](O)[C@H]2O)/C(=C\CO)[C@@H]1CC(=O)OCCc1ccc(O)cc1 under inhibition: inconclusive: 10%

# (cont.)

row,SMILES,inhibition
1,COc1ccc(C(C(=O)OCCN(C)C)c2ccccc2)cc1 (configuration not stated),inconclusive: 11%
2,CC(=O)c1c(C)oc2ccc(N(C(=O)c3ccccc3)S(=O)(=O)c3ccc(C)cc3)cc12,inactive
3,COc1ccccc1N1CCN(C(=O)CN(c2cccc([N+](=O)[O-])c2)S(C)(=O)=O)CC1,inactive
4,CC1=C(C(=O)Nc2ccccn2)C(c2cccnc2)C2=C(CC(C)(C)CC2=O)N1 (configuration not stated),inconclusive: 12%
5,COc1ccc(CN[C@H]2C[C@H]3C(=O)NC[C@@H](CCC(=O)N4CCN(c5ccccc5)CC4)N3C2)cc1,active: 57%
6,O=C(O)C1(Cc2ccc(F)cc2)CCCN(c2cnc3ccccc3n2)C1 (configuration not stated),inactive
7,O=C(NCc1ccccc1)N1Cc2[nH]cnc2C[C@H]1c1nc(-c2ccc(F)c(Cl)c2)no1,inconclusive: 13%
8,O=C(Nc1cccc2c(-c3ccccc3)ccnc12)C1CC1,inconclusive: 10%
9,Cc1cc(N2CCOCC2)nc2ccc(NC(=O)CCC(=O)N3CCN(C)CC3)cc12,inactive
10,Cn1c(C(=O)Nc2ccc(Br)cc2)cc2c(=O)n3ccccc3nc21,inconclusive: 22%
11,CCC(CC)C(=O)Nc1ccc(Nc2nc(C)cc(N(C)C)n2)cc1,inconclusive: 16%
12,CCC(Sc1nc2c(c(=O)n1-c1ccc(Cl)cc1)SCC2)C(=O)OC (configuration not stated),inactive
13,O=c1[nH]c2cc3c(cc2cc1CN1CCCN2CCC[C@H]2C1)OCO3,inconclusive: 15%
14,COc1cc(Cl)c(/C=C2\C(=O)Nc3ccc(Br)cc32)cc1OC,inconclusive: 19%
15,Cc1nn(Cc2ccc(Cl)cc2)c(C)c1NC(=O)c1cc(-c2cccs2)on1,inconclusive: 10%
16,O=C1CC(Sc2nnnn2-c2ccccc2)C(=O)N1c1ccc([N+](=O)[O-])cc1 (configuration not stated),inconclusive: 13%
17,CN(N)c1nc(-c2ccccc2)cc(-c2ccc(Br)cc2)n1,inconclusive: 12%
18,CCC(C)N1C(=O)CCC1C(=O)NCc1ccc2c(c1)OCO2 (configuration not stated),inconclusive: 13%
19,Cc1nc2cc(NCc3ccc(N(C)C)cc3)ccc2n1C,inconclusive: 25%
20,COc1ccc(C(=O)Nc2ccccc2C(=O)NCCN2CCOCC2)o1,inconclusive: 15%
21,CCOc1ccc(-c2cnc3ccccc3n2)cc1,inconclusive: 18%
22,O=[N+]([O-])c1cccc(-c2nc(N3CCOCC3)c3ccccc3n2)c1,inactive
23,Cc1cnccc1N1CCCN(Cc2cc(C(C)C)no2)CC1,inactive
